{"source": "paper PMC12040169", "about": "(PLOS Biology, 2025)", "note": "This is one part of the list."}
{"test_system": "T1, CTL2-GFP (C. trachomatis L2/434/Bu, GFP-expressing)", "T1 construct": "L2/434/Bu, GFP-expressing", "design": "species or system HeLa; Intracellular C. trachomatis growth in HeLa cells, bulk GFP fluorescence relative to DMSO", "conditions": "bulk GFP, single well; 28.5 h, 10 µM; inhibitor", "units": {"% of control remaining": "%"}}
{"molecule": "CC(=O)Nc1sc2c(c1C(=O)O)CCc1ccccc1-2", "note": "[CBK126812]", "% of control remaining": 69.7873}
{"molecule": "c1cc2c(cc1CNc1nnn[nH]1)OCO2", "note": "[CBK018783]", "% of control remaining": 131.126}
{"molecule": "CCOc1cc(NC2CCN(C(=O)C3(CCOC)CC3)CC2)ncn1", "note": "[CBK304434]", "% of control remaining": 119.467}
{"molecule": "O=C(c1cccs1)N1CCN(S(=O)(=O)c2cccc([N+](=O)[O-])c2)CC1", "note": "[CBK266184]", "% of control remaining": 113.062}
{"molecule": "O=C(NCCCc1nc2ccccc2[nH]1)c1ccccc1", "note": "[CBK268429]", "% of control remaining": 134.744}
{"molecule": "COc1cc(CN2CCN(Cc3cccc([N+](=O)[O-])c3)CC2)c([N+](=O)[O-])cc1OC", "note": "[CBK263111]", "% of control remaining": 100}
{"molecule": "COC(=O)[C@H](NC(=O)C1CCN(C(=O)OCc2ccccc2)CC1)c1ccccc1", "note": "[CBK081466]", "% of control remaining": 124.605}
{"molecule": "CNC(=O)c1cnn2c(C)c(Cc3cccnc3)c(C)nc12", "note": "[CBK162165]", "% of control remaining": 130.586}
{"molecule": "COc1ccccc1NC(=O)Cn1cnc2sc(C(=O)NC(C)C)c(C)c2c1=O", "note": "[CBK071847]", "% of control remaining": 119.551}
{"molecule": "CN(C)c1ccc(C=C2CCCC3C2=NN(C(=O)CCC(=O)O)C3c2ccc(N(C)C)cc2)cc1", "note": "(stereo not shown) [CBK296065]", "% of control remaining": 148.295}
{"molecule": "Cc1cc(C)cc(C(=O)NC(=S)Nc2sc(C)c(C)c2C#N)c1", "note": "[CBK267089]", "% of control remaining": 155.347}
{"molecule": "Cc1nc(CCNC(=O)c2cc(C(C)C)n(C(C)(C)C)n2)cs1", "note": "[CBK304082]", "% of control remaining": 104.993}
{"molecule": "COc1cc([N+](=O)[O-])ccc1NC(=O)CS(=O)(=O)Cc1ccccc1", "note": "[CBK266704]", "% of control remaining": 118.766}
{"molecule": "O=[N+]([O-])c1ccc(-c2ccc(/N=C/c3ccco3)cc2)cc1", "note": "[CBK261639]", "% of control remaining": 107.548}
{"molecule": "N#C/C(=C\\c1cn(-c2ccccc2)nc1-c1ccc(S(=O)(=O)N2CCCCC2)cc1)c1nc2ccccc2c(=O)[nH]1", "note": "[CBK266268]", "% of control remaining": 126.393}
{"molecule": "COC(=O)[C@@H](C)NC(=O)[C@H]1CN(C(=O)Nc2ccccc2)CCN1C(C)=O", "note": "[CBK289627]", "% of control remaining": 143.884}
{"molecule": "CCN(CC)c1ccc(CN(CCCN(C)C)C(=O)NCc2ccc(F)cc2)cc1", "note": "[CBK159410]", "% of control remaining": 122.698}
{"molecule": "Cc1cccc(C)c1NC(=O)CSCC(=O)Nc1ccc2ccccc2c1", "note": "[CBK263274]", "% of control remaining": 134.323}
{"molecule": "Cn1ncnc1COc1ccc(S(=O)(=O)N2CCCCC2CN)cc1", "note": "(stereo not shown) [CBK304313C]", "% of control remaining": 127.119}
{"molecule": "CC(=O)N1CCCN(C(=O)Cn2cnc3ccc(F)cc3c2=O)CC1", "note": "[CBK245206]", "% of control remaining": 112.537}
{"molecule": "O=c1cc(CSc2nnc(-c3ccccc3)[nH]2)nc2[nH]cnn12", "note": "[CBK294398]", "% of control remaining": 142.419}
{"molecule": "O=C1N=C(NC2CC3CCC2C3)SC12CCCO2", "note": "(stereo not shown) [CBK116312]", "% of control remaining": 100.432}
{"molecule": "CCOc1ccc(Cl)cc1CN(C)C(=O)NC(C)CN1CCOCC1", "note": "(stereo not shown) [CBK307170]", "% of control remaining": 59.7389}
{"molecule": "CCCSc1scc2c1-c1n[nH]cc1CC2", "note": "[CBK017006]", "% of control remaining": 109.394}
{"molecule": "CC(=O)NCCSc1nccc(C(F)(F)F)n1", "note": "[CBK105301]", "% of control remaining": 120.936}
{"molecule": "O=C(CSc1nnc(-c2cccnc2)n1-c1ccc(Br)cc1)Nc1ccc2c(c1)OCO2", "note": "[CBK266153]", "% of control remaining": 161.768}
{"molecule": "CCOC(=O)NC(=O)c1ccccc1", "note": "[CBK012359]", "% of control remaining": 115.53}
{"molecule": "Cc1sc(NC(=O)COc2ccccc2)c(C(N)=O)c1-c1ccccc1", "note": "[CBK268164]", "% of control remaining": 112.801}
{"molecule": "Cc1csc2ncc(C(=O)Nc3ccccc3C#N)c(=O)n12", "note": "[CBK287458]", "% of control remaining": 139.361}
{"molecule": "CN(C)[C@H]1CCCC[C@@H]1OC(=O)c1ccc(C(F)(F)F)cc1", "note": "[CBK010550F]", "% of control remaining": 125.272}
{"molecule": "Clc1ccc(Nc2cncc(-c3cccnc3)n2)cc1", "note": "[CBK065234]", "% of control remaining": 151.563}
{"molecule": "c1ccc2c(-c3cn4ccnc4c(N4CCOCC4)n3)cccc2c1", "note": "[CBK037387]", "% of control remaining": 101.341}
{"molecule": "O=C(CSc1nc2ccccc2[nH]1)Nc1ccc(OC(F)(F)F)cc1", "note": "[CBK269711]", "% of control remaining": 153.638}
{"molecule": "O=C(O)c1ccc(CNCC(O)c2ccccc2)cc1", "note": "(stereo not shown) [CBK287243]", "% of control remaining": 112.321}
{"molecule": "O=C(c1ccc2c(c1)OCCO2)N1CCN(c2ncccn2)CC1", "note": "[CBK144519]", "% of control remaining": 101.318}
{"molecule": "FC(F)(F)c1ccnc(OCCNc2ccccc2)n1", "note": "[CBK115839]", "% of control remaining": 101.751}
{"molecule": "CC(C)C[C@@H]1N[C@H](C(=O)N2CCN(c3ncccn3)CC2)Cc2cn(C)c3cccc1c23", "note": "[CBK289421]", "% of control remaining": 106.033}
{"molecule": "CC(C)(N)C(=O)N1CC(C(=O)N2CC3(CCN(S(C)(=O)=O)CC3)c3ccccc32)C(c2cc3ccccc3o2)C1", "note": "(stereo not shown) [CBK136734T]", "% of control remaining": 111.187}
{"molecule": "CCC1c2ccc(C)n2CCN1Cc1cnc(C)n1C", "note": "(stereo not shown) [CBK283038]", "% of control remaining": 123.301}
{"molecule": "CC(=O)c1nnn(-c2ccc(Cl)cc2Cl)c1C", "note": "[CBK085972]", "% of control remaining": 176.996}
{"molecule": "CCOC(=O)c1ccc(NC(=O)C2CC(=O)NC(Nc3nc4ccccc4s3)=N2)cc1", "note": "(stereo not shown) [CBK264396]", "% of control remaining": 132.514}
{"molecule": "COC1C(O)C(CO)OC1n1cc(F)c(Oc2c(C)cc(C)cc2C)nc1=O", "note": "(stereo not shown) [CBK201279]", "% of control remaining": 123.17}
{"molecule": "COc1ccc(C)cc1S(=O)(=O)N(CC(=O)O)Cc1ccccc1", "note": "[CBK267847]", "% of control remaining": 74.9469}
{"molecule": "COc1cccc(CC(=O)N2CCCC2c2cc(Nc3nc(C)cc(C)n3)cc(C)n2)c1", "note": "(stereo not shown) [CBK285999]", "% of control remaining": 130.051}
{"molecule": "CCC(CC)C(=O)N(C)c1c(C)nc2ccc(C(=O)Nc3cccc(NS(C)(=O)=O)c3)cn12", "note": "[CBK146526]", "% of control remaining": 110.811}
{"molecule": "CC(C)c1nsc(NCCc2nnc3n2CCCC3)n1", "note": "[CBK306425]", "% of control remaining": 137.269}
{"molecule": "Clc1ccc(OCc2ccccc2)c(CNCCN2CCOCC2)c1", "note": "[CBK278162C]", "% of control remaining": 157.598}
{"molecule": "O=C(NCCN1CCOCC1)C1(c2ccccc2)CCCC1", "note": "[CBK149538]", "% of control remaining": 122.986}
{"molecule": "C[C@H]1[C@@H]2[C@@H](O)C([C@H](C)C(=O)NCc3ccccn3)CC[C@@]2(C)CC[C@@H]1NC(=O)C1CC1", "note": "(stereo partly shown) [CBK289445]", "% of control remaining": 156.796}
{"molecule": "COCCNc1nc(-c2cccc(-c3ccccc3)c2)cnc1N", "note": "[CBK063474]", "% of control remaining": 146.333}
{"molecule": "CN(C)CCCOC(=O)C(C)(c1ccccc1)c1ccccc1", "note": "[CBK265325C]", "% of control remaining": 95.3032}
{"molecule": "Oc1nnc(-c2ccc(Cl)c(Cl)c2)n1C1CCCCC1", "note": "[CBK074888]", "% of control remaining": 90.9401}
{"molecule": "Cc1c(C)n2c(SCC(=O)N3CCCC3)nnc2[nH]c1=O", "note": "[CBK287686]", "% of control remaining": 145.532}
{"molecule": "CC1CCN(CN2C(=O)C(=O)c3ccccc32)CC1", "note": "[CBK261304]", "% of control remaining": 100.666}
{"molecule": "Cc1ccc(-n2c3nc(=O)n(C)c(=O)c-3cc3ccccc32)cc1", "note": "[CBK288007]", "% of control remaining": 124.799}
{"molecule": "CCN1CC(C(=O)N2CCCCC2CN(C)C)CC1=O", "note": "(stereo not shown) [CBK282056]", "% of control remaining": 109.834}
{"molecule": "CCOc1ccsc1C(=O)Nc1cc(C)ccn1", "note": "[CBK004029]", "% of control remaining": 27.0139}
{"molecule": "Cc1cc(NS(=O)(=O)c2ccc(Oc3ccccc3)cc2)n(C)n1", "note": "[CBK067249]", "% of control remaining": 116.922}
{"molecule": "Cc1nn(CC(=O)N(C(C)C)C(C)C)c(=O)c2cc3occc3n12", "note": "[CBK283655]", "% of control remaining": 96.3909}
{"molecule": "O=C(NCCC1=CCCCC1)Nc1ccc2ccccc2c1", "note": "[CBK044195]", "% of control remaining": 109.471}
{"molecule": "O=C(c1ccccc1)c1ccc(S(=O)(=O)N2CCCN(Cc3c[nH]nc3-c3ccccc3)CC2)cc1", "note": "[CBK062773]", "% of control remaining": 130.343}
{"molecule": "O=C1CC[C@@H](NCc2ccco2)[C@H](c2cc(F)cc(F)c2)N1", "note": "[CBK283127]", "% of control remaining": 113.734}
{"molecule": "O=c1[nH]c(CSc2nnc(COc3ccccc3)o2)nc2ccccc12", "note": "[CBK269869]", "% of control remaining": 127.812}
{"molecule": "C/C(=N/NC(=O)C(C)CN1CCOCC1)c1ccc(Cl)cc1", "note": "(stereo not shown) [CBK016045]", "% of control remaining": 120.475}
{"molecule": "CCOc1cccc(N2C(=O)CC(N3CCN(c4ccccn4)CC3)C2=O)c1", "note": "(stereo not shown) [CBK262829]", "% of control remaining": 111.658}
{"molecule": "O=C(CSc1ccc(Cl)cc1)NCCCN1CCOCC1", "note": "[CBK009390]", "% of control remaining": 89.0887}
{"molecule": "CCNC(=O)CN1CCN(c2nc(C(F)(F)F)ccc2C#N)CC1", "note": "[CBK305515]", "% of control remaining": 122.201}
{"molecule": "CNC(=O)c1ccc(-c2ccc(C)c(C)c2)nc1NCCOC", "note": "[CBK105999]", "% of control remaining": 136.475}
{"molecule": "COc1ccc(NC(=O)CCCSc2nc(N)c3c(C)c(C)sc3n2)cc1", "note": "[CBK266547]", "% of control remaining": 142.95}
{"molecule": "CCNc1nc(C#N)nc(Nc2ccccc2)n1", "note": "[CBK027733]", "% of control remaining": 150.518}
{"molecule": "O=C(Nc1ccc2oc(-c3cccnc3)nc2c1)c1ccc(-c2ccc(OC(F)(F)F)cc2)o1", "note": "[CBK107713]", "% of control remaining": 105.819}
{"molecule": "CC(C)(C#N)c1ccccc1CN1CCCCC1c1[nH]ncc1C(N)=O", "note": "(stereo not shown) [CBK304740]", "% of control remaining": 103.454}
{"molecule": "COc1ccc(NC(=O)c2csc(Nc3ccccc3)n2)cc1OC", "note": "[CBK287840]", "% of control remaining": 93.3968}
{"molecule": "Cc1nc(C2CCN(C(=O)CCC3CCCO3)CC2)c2sccn12", "note": "(stereo not shown) [CBK282240]", "% of control remaining": 114.933}
{"molecule": "CCC(C)(C)C1CCc2c(sc(NC(=O)CN3CCOCC3)c2C#N)C1", "note": "(stereo not shown) [CBK270048]", "% of control remaining": 155.399}
{"molecule": "CCn1c2cc(C)oc2c2cnn(CC(=O)N3CCCCC3)c(=O)c21", "note": "[CBK284220]", "% of control remaining": 154.976}
{"molecule": "CCOc1ccccc1CCNS(=O)(=O)c1ccc(Cl)c(Cl)c1", "note": "[CBK043610]", "% of control remaining": 99.8973}
{"molecule": "CC(=O)Nc1ccc(NC(=O)CC2(CC(=O)O)CCCC2)cc1", "note": "[CBK296931]", "% of control remaining": 140.841}
{"molecule": "Cc1noc(C)c1NC(=O)c1ccc2ccccc2n1", "note": "[CBK200309]", "% of control remaining": 94.4896}
